# From patent EP4080216A1, “METHODS DETERMINING THE POTENTIAL OF DRUGS FOR TREATING BACTERIAL INFECTIONS AND COMPOSITION FOR TREATING BACTERIAL INFECTIONS” (priority 2021, dated 2022)
# “Also recorded” adds a separate entry of the source. For part of these data: At least one read-out could not be matched to a standard name with certainty. For part of these data: At least one compound was matched to its structure with a doubt left.
# How the values were obtained:
# [1] = test system: CD14; test: bead assay: binding of fluorescent FimH-expressing (ON) bacteria to CD14-coupled magnetic beads, flow cytometry; design: species or system murine; details: sub-minimal inhibitory concentrations
# Protocol: In one embodiment, the CD14 protein is a recombinant chimeric protein. In a preferred embodiment, the CD14 protein comprises the murine N-terminal of CD14 which is bound to protein A on the magnetic beads via the Fc tail. In another embodiment, the magnetic beads are pre-coated with protein A. In one preferred embodiment, a fluorescent marker is stably integrated into the DNA of the bacteria. The stable integration of a fluorescent marker into the bacteria DNA is performed by any conventional means known to the skilled person such as by transforming the bacteria with a conditional-replication, integration, and modular (CRIM) plasmid. In another embodiment, the fluorescent marker is transiently integrated into the DNA of the bacteria. The transient integration of a fluorescent marker into the bacteria DNA is performed by any conventional means known to the skilled person such as by transforming the bacteria with a plasmid harbouring the fluorescent marker. In another embodiment, the DNA is visualized by a fluorescent marker added after step f). In a preferred embodiment, the fluorescent marker added after step f) is a fluorescent dye. In the latter embodiment, the fluorescent marker or fluorescent dye is thiazole orange, Hoechst 3342, Hoechst 3358, or carboxyfluorescein diacetate (CFDA) and its derivatives. […]
# [2] = test system: Hox8b-derived murine dendritic cells; test: adhesion assay: adhesion of dendritic cells infected with type I piliated (ON) bacteria, Hoechst fluorescence plate reader and brightfield images; assay type: cell-based; details: concentration not given; ON bacteria at multiplicity of infection of 10, 18 to 20 hours post infection
# Protocol: In one embodiment, the dendritic cells are dendritic cells from any mammalian species such as human, primate, mouse, cow, pig, dog, goat, rabbit, rat and cow. In one embodiment, the dendritic cells are human or murine dendritic cells. In another embodiment, the dendritic cells are established dendritic cell lines. In another embodiment, the dendritic cells are human dendritic cell lines such as Thp-1, HL-60, MUTZ-3, U937, KG-1 and PDMC05. In one embodiment, the dendritic cells are cultured in regular cell culture dishes or cell culture plates known to the skilled person in the art. In another embodiment, the cell culture dishes or cell culture plates are treated with different extracellular matrix components such as fibronectin or fibrinogen or combinations thereof. In another embodiment, genetically modified dendritic cells are used. In a preferred embodiment, the genetically modified dendritic cells express a fluorescent marker. In a particularly preferred embodiment, the genetically modified dendritic cells have a fluorescently labelled actin cytoskeleton. In a particularly preferred embodiment, the genetically modified dendritic cells express LifeAct®-GFP and therefore, have a fluorescently labelled actin cytoskeleton. In one embodiment, the dendritic cells are infected with the bacteria at a multiplicity of infection of 1-100 (1-100 bacteria per 1 dendritic cell). […]
# [3] = orally applied, suggested upper daily limit of 9 g; read-out: blood mannose levels; cited from earlier work
Compound,prevent binding of ON bacteria to CD14-coupled beads [1],adhesion of dendritic cells [2],concentration [3] [µM]
CN(C)[C@@H]1C(O)=C(C(N)=O)C(=O)[C@@]2(O)C(O)=C3C(=O)c4c(O)cccc4[C@@](C)(O)[C@H]3C[C@@H]12 [tetracycline],not able to prevent binding,increased adhesion even further; also recorded: significantly increased adhesion,–
D-mannose,–,–,~175
